From paper PMC9098222

By UniProt entry, the sequences of proteins in these tests, tags left out. Where a name states a change or a piece, a line headed by the entry shows the natural chain unless it says otherwise.
UniProt O14654: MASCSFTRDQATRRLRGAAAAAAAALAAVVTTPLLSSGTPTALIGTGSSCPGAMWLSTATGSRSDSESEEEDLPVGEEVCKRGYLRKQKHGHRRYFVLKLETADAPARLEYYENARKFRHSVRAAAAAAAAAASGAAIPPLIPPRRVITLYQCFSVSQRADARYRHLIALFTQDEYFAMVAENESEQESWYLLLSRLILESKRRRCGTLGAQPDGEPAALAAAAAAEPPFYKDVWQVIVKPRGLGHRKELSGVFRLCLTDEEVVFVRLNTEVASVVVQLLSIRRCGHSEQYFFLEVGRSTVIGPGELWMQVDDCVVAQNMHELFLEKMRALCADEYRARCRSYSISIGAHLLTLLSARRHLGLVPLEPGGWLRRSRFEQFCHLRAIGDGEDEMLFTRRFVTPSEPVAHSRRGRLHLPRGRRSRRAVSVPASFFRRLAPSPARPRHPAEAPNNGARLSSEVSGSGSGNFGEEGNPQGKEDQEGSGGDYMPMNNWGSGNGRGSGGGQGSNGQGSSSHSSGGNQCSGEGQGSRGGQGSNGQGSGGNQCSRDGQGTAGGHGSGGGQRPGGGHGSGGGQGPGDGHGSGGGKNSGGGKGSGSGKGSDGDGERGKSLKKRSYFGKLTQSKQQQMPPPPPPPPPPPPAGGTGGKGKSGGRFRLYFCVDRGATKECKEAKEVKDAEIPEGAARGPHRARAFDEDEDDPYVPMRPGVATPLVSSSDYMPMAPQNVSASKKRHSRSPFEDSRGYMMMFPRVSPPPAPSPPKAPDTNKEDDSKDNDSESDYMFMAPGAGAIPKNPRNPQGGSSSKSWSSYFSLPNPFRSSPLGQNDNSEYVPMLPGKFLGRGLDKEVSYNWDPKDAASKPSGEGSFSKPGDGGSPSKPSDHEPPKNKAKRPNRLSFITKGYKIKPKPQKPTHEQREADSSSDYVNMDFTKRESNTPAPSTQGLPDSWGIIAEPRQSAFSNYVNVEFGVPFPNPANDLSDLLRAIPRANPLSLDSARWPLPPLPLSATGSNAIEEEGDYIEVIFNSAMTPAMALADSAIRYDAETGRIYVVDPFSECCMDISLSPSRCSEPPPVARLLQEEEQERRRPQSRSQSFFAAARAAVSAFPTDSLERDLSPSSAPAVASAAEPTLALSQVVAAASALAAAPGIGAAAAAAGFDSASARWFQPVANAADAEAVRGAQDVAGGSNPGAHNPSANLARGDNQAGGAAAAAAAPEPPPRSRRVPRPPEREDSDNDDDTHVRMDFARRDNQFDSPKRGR
UniProt P16591: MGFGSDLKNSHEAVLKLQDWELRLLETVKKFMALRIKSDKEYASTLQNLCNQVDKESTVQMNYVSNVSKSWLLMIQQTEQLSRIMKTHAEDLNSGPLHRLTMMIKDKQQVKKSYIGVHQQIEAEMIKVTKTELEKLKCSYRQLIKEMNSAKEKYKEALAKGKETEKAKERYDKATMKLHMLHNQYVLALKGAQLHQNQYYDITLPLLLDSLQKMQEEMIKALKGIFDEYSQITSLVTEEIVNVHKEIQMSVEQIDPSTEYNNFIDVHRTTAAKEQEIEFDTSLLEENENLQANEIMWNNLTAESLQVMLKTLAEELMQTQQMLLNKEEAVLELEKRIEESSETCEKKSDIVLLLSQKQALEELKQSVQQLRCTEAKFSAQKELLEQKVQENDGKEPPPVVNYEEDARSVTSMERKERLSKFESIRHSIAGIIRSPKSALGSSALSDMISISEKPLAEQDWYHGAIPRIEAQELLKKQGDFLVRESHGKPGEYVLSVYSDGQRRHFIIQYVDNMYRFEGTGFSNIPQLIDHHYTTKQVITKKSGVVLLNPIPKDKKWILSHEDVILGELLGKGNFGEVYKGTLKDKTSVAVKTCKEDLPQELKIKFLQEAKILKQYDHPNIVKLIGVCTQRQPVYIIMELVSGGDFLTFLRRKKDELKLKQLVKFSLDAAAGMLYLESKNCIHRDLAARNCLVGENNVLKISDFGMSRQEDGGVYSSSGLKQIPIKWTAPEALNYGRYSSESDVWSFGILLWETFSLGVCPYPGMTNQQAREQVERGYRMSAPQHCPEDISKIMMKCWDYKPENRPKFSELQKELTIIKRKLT

Assays:
Myc-IRS4ΔPH (human) = Myc-IRS4ΔPH (human) (UniProt O14654); test: co-IP; HEK293FT cells transiently co-transfected; lysis in 20 mM HEPES pH 7.5, 150 mM NaCl, 1% Nonidet P-40, 1 mM sodium orthovanadate; Myc-tagged IRS4 form precipitated with anti-Myc resin, partners found by immunoblot; some panels with or without co-expressed FLAG-IRS1, FLAG-PIK3R1 or FER
Myc-IRS4ΔPTB (human) = Myc-IRS4ΔPTB (human) (UniProt O14654); test: as above

binding (Myc-IRS4ΔPH (human)): binds
binding (Myc-IRS4ΔPTB (human)): binds
Substance: GFP-tagged FER (from UniProt P16591 1-822) (enzyme)

Results are given in words; binding and its absence hold for the method and conditions named. In cells and extracts the contact can be indirect. Binding can be weak; no strength is given.
